{"source": "PubChem BioAssay AID686938 – Drosophila RNAi Screening Center – 2013", "aim": "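Knock-downs reducing store-operated calcium influx in Drosophila cells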 (primary screen)", "system": "Drosophila S2R+ cells", "knock-down reagent": "long dsRNA against Drosophila genes, about 0.25 µg dsRNA per well, roughly 10,000 cells", "timing": "5 days of knock-down before the calcium assay", "treatment": "thapsigargin (SERCA pump blocker) to empty calcium stores; entry signal taken 4 min after adding it", "read-out": "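Per-well fluo-4 fluorescence in two replicates, unnormalised, measured in resting cells and 4 min after store depletion by the SERCA blocker thapsigargin; ratio of the two present in few wells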", "scale": "calcium entry signal: higher = stronger calcium signal after store depletion; entry to resting ratio: higher = more calcium entry relative to resting level; resting calcium signal: higher = higher resting calcium signal", "call rule": "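Hit if the duplicate-averaged plate z-score for entry over resting signal is under −3; wells with weak total dye signal (Fmax z < −2) or more than 5 off-targets removed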", "meaning of the calls": "active = strongly reduced calcium entry; inactive = no strong reduction", "note": "The deposit covers about 23,000 reagents; shown is a random part of those that have a named target and a result. In the full data, 75 (0.33%) got an active call. 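Raw plate signals without normalisation; calls rest on plate z-scores that were not deposited; ratio present for only 364 wells.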 Unmarked entries are inactive. Not stated in the record: the dose of the treatment."}
{"target gene": "Mur89F (Mucin related 89F)", "amplicon": "DRSC15544", "calcium entry signal, replicate 1 (fluorescence units)": 3.52e7, "calcium entry signal, replicate 2 (fluorescence units)": 4.87e7, "resting calcium signal, replicate 1 (fluorescence units)": 1.62e7, "resting calcium signal, replicate 2 (fluorescence units)": 5.60e7}
{"target gene": "CG13358", "amplicon": "DRSC18534", "calcium entry signal, replicate 1 (fluorescence units)": 3.35e7, "calcium entry signal, replicate 2 (fluorescence units)": 4.37e7, "entry to resting ratio": 2.1, "resting calcium signal, replicate 1 (fluorescence units)": 1.58e7, "resting calcium signal, replicate 2 (fluorescence units)": 1.65e7}
{"target gene": "Dis3", "amplicon": "DRSC16034", "calcium entry signal, replicate 1 (fluorescence units)": "2.28e7 (active)", "calcium entry signal, replicate 2 (fluorescence units)": 2.15e7, "resting calcium signal, replicate 1 (fluorescence units)": 1.65e7, "resting calcium signal, replicate 2 (fluorescence units)": 1.48e7}
{"target gene": "BomS2 (Bomanin Short 2)", "amplicon": "DRSC21488", "calcium entry signal, replicate 1 (fluorescence units)": 2.32e7, "calcium entry signal, replicate 2 (fluorescence units)": 3.32e7, "resting calcium signal, replicate 1 (fluorescence units)": 1.13e7, "resting calcium signal, replicate 2 (fluorescence units)": 1.40e7}
{"target gene": "Pxd (Peroxidase)", "amplicon": "DRSC16805", "calcium entry signal, replicate 1 (fluorescence units)": 2.87e7, "calcium entry signal, replicate 2 (fluorescence units)": 4.39e7, "resting calcium signal, replicate 1 (fluorescence units)": 1.38e7, "resting calcium signal, replicate 2 (fluorescence units)": 5.40e7}
{"target gene": "Mitf", "amplicon": "DRSC17212", "calcium entry signal, replicate 1 (fluorescence units)": 3.99e7, "calcium entry signal, replicate 2 (fluorescence units)": 5.32e7, "entry to resting ratio": 2.1, "resting calcium signal, replicate 1 (fluorescence units)": 1.90e7, "resting calcium signal, replicate 2 (fluorescence units)": 2.10e7}
{"target gene": "Mitf", "amplicon": "DRSC21056", "calcium entry signal, replicate 1 (fluorescence units)": 5.60e7, "calcium entry signal, replicate 2 (fluorescence units)": 4.09e7, "resting calcium signal, replicate 1 (fluorescence units)": 2.26e7, "resting calcium signal, replicate 2 (fluorescence units)": 1.65e7}
{"target gene": "GstZ1 (Glutathione S transferase Z1)", "amplicon": "DRSC16478", "calcium entry signal, replicate 1 (fluorescence units)": 3.53e7, "calcium entry signal, replicate 2 (fluorescence units)": 3.90e7, "resting calcium signal, replicate 1 (fluorescence units)": 1.54e7, "resting calcium signal, replicate 2 (fluorescence units)": 2.01e7}
{"target gene": "Mettl14 (Methyltransferase like 14)", "amplicon": "DRSC03073", "calcium entry signal, replicate 1 (fluorescence units)": 5.04e7, "resting calcium signal, replicate 1 (fluorescence units)": 2.53e7}
{"target gene": "CG13972", "amplicon": "DRSC14715", "calcium entry signal, replicate 1 (fluorescence units)": 2.18e7, "calcium entry signal, replicate 2 (fluorescence units)": 3.65e7, "resting calcium signal, replicate 1 (fluorescence units)": 1.31e7, "resting calcium signal, replicate 2 (fluorescence units)": 1.72e7}
{"target gene": "CG4766", "amplicon": "DRSC17736", "calcium entry signal, replicate 1 (fluorescence units)": 3.13e7, "calcium entry signal, replicate 2 (fluorescence units)": 3.57e7, "resting calcium signal, replicate 1 (fluorescence units)": 1.57e7, "resting calcium signal, replicate 2 (fluorescence units)": 1.70e7}
{"target gene": "polo", "amplicon": "DRSC11384", "calcium entry signal, replicate 1 (fluorescence units)": 3.05e7, "calcium entry signal, replicate 2 (fluorescence units)": 7.25e7, "resting calcium signal, replicate 1 (fluorescence units)": 1.47e7, "resting calcium signal, replicate 2 (fluorescence units)": 3.30e7}
{"target gene": "polo", "amplicon": "DRSC22359", "calcium entry signal, replicate 1 (fluorescence units)": 2.32e7, "calcium entry signal, replicate 2 (fluorescence units)": 3.98e7, "resting calcium signal, replicate 1 (fluorescence units)": 1.64e7, "resting calcium signal, replicate 2 (fluorescence units)": 2.52e7}
{"target gene": "Dic3", "amplicon": "DRSC06058", "calcium entry signal, replicate 1 (fluorescence units)": 4.97e7, "calcium entry signal, replicate 2 (fluorescence units)": 3.90e7, "resting calcium signal, replicate 1 (fluorescence units)": 2.09e7, "resting calcium signal, replicate 2 (fluorescence units)": 1.69e7}
{"target gene": "MtnC (Metallothionein C)", "amplicon": "DRSC22879", "calcium entry signal, replicate 1 (fluorescence units)": 3.99e7, "calcium entry signal, replicate 2 (fluorescence units)": 3.58e7, "resting calcium signal, replicate 1 (fluorescence units)": 2.03e7, "resting calcium signal, replicate 2 (fluorescence units)": 1.54e7}
{"target gene": "VhaM9.7-c (Vacuolar H[+] ATPase M9.7 subunit c)", "amplicon": "DRSC08204", "calcium entry signal, replicate 1 (fluorescence units)": 4.46e7, "calcium entry signal, replicate 2 (fluorescence units)": 4.17e7, "resting calcium signal, replicate 1 (fluorescence units)": 3.06e7, "resting calcium signal, replicate 2 (fluorescence units)": 1.77e7}
{"target gene": "Pgi (Phosphoglucose isomerase)", "amplicon": "DRSC07507", "calcium entry signal, replicate 1 (fluorescence units)": 4.44e7, "calcium entry signal, replicate 2 (fluorescence units)": 3.97e7, "resting calcium signal, replicate 1 (fluorescence units)": 2.11e7, "resting calcium signal, replicate 2 (fluorescence units)": 2.15e7}
{"target gene": "fne (found in neurons)", "amplicon": "DRSC20332", "calcium entry signal, replicate 1 (fluorescence units)": 3.37e7, "calcium entry signal, replicate 2 (fluorescence units)": 3.63e7, "resting calcium signal, replicate 1 (fluorescence units)": 2.07e7, "resting calcium signal, replicate 2 (fluorescence units)": 2.14e7}
{"target gene": "fne (found in neurons)", "amplicon": "DRSC22418", "calcium entry signal, replicate 1 (fluorescence units)": 3.18e7, "calcium entry signal, replicate 2 (fluorescence units)": 3.25e7, "resting calcium signal, replicate 1 (fluorescence units)": 1.54e7, "resting calcium signal, replicate 2 (fluorescence units)": 1.23e7}
{"target gene": "Hel89B (Helicase 89B)", "amplicon": "DRSC16700", "calcium entry signal, replicate 1 (fluorescence units)": 4.35e7, "calcium entry signal, replicate 2 (fluorescence units)": 4.43e7, "resting calcium signal, replicate 1 (fluorescence units)": 1.98e7, "resting calcium signal, replicate 2 (fluorescence units)": 2.33e7}
{"target gene": "Hel89B (Helicase 89B)", "amplicon": "DRSC21575", "calcium entry signal, replicate 1 (fluorescence units)": 4.34e7, "calcium entry signal, replicate 2 (fluorescence units)": 3.83e7, "resting calcium signal, replicate 1 (fluorescence units)": 2.85e7, "resting calcium signal, replicate 2 (fluorescence units)": 1.84e7}
{"target gene": "Csgalnact (Chondroitin sulfate N-acetylgalactosaminyltransferase)", "amplicon": "DRSC06228", "calcium entry signal, replicate 1 (fluorescence units)": 3.03e7, "calcium entry signal, replicate 2 (fluorescence units)": 3.52e7, "resting calcium signal, replicate 1 (fluorescence units)": 1.55e7, "resting calcium signal, replicate 2 (fluorescence units)": 1.54e7}
{"target gene": "CG13481", "amplicon": "DRSC10023", "calcium entry signal, replicate 1 (fluorescence units)": 3.61e7, "calcium entry signal, replicate 2 (fluorescence units)": 4.33e7, "resting calcium signal, replicate 1 (fluorescence units)": 1.69e7, "resting calcium signal, replicate 2 (fluorescence units)": 1.92e7}
{"target gene": "brv1 (brivido-1)", "amplicon": "DRSC11076", "calcium entry signal, replicate 1 (fluorescence units)": 2.87e7, "calcium entry signal, replicate 2 (fluorescence units)": 4.42e7, "resting calcium signal, replicate 1 (fluorescence units)": 1.43e7, "resting calcium signal, replicate 2 (fluorescence units)": 2.01e7}
{"target gene": "CG34106", "amplicon": "DRSC01578", "calcium entry signal, replicate 1 (fluorescence units)": 3.15e7, "calcium entry signal, replicate 2 (fluorescence units)": 4.32e7, "resting calcium signal, replicate 1 (fluorescence units)": 1.79e7, "resting calcium signal, replicate 2 (fluorescence units)": 1.94e7}
{"target gene": "Sply (Sphingosine-1-phosphate lyase)", "amplicon": "DRSC07299", "calcium entry signal, replicate 1 (fluorescence units)": 3.45e7, "calcium entry signal, replicate 2 (fluorescence units)": 2.04e7, "resting calcium signal, replicate 1 (fluorescence units)": 1.97e7, "resting calcium signal, replicate 2 (fluorescence units)": 1.09e7}
{"target gene": "Wnt6 (Wnt oncogene analog 6)", "amplicon": "DRSC02795", "calcium entry signal, replicate 1 (fluorescence units)": 3.63e7, "calcium entry signal, replicate 2 (fluorescence units)": 2.67e7, "resting calcium signal, replicate 1 (fluorescence units)": 1.68e7, "resting calcium signal, replicate 2 (fluorescence units)": 1.22e7}
